Test results: paper PMC10951364
Results are given in words; binding and its absence hold for the method and conditions named. In cells and extracts the contact can be indirect. Some binding calls cover weakened binding; strength is not graded here.

Sequences of proteins named here, by UniProt entry; tags and fusion partners are left off.
UniProt Q7Z6E9: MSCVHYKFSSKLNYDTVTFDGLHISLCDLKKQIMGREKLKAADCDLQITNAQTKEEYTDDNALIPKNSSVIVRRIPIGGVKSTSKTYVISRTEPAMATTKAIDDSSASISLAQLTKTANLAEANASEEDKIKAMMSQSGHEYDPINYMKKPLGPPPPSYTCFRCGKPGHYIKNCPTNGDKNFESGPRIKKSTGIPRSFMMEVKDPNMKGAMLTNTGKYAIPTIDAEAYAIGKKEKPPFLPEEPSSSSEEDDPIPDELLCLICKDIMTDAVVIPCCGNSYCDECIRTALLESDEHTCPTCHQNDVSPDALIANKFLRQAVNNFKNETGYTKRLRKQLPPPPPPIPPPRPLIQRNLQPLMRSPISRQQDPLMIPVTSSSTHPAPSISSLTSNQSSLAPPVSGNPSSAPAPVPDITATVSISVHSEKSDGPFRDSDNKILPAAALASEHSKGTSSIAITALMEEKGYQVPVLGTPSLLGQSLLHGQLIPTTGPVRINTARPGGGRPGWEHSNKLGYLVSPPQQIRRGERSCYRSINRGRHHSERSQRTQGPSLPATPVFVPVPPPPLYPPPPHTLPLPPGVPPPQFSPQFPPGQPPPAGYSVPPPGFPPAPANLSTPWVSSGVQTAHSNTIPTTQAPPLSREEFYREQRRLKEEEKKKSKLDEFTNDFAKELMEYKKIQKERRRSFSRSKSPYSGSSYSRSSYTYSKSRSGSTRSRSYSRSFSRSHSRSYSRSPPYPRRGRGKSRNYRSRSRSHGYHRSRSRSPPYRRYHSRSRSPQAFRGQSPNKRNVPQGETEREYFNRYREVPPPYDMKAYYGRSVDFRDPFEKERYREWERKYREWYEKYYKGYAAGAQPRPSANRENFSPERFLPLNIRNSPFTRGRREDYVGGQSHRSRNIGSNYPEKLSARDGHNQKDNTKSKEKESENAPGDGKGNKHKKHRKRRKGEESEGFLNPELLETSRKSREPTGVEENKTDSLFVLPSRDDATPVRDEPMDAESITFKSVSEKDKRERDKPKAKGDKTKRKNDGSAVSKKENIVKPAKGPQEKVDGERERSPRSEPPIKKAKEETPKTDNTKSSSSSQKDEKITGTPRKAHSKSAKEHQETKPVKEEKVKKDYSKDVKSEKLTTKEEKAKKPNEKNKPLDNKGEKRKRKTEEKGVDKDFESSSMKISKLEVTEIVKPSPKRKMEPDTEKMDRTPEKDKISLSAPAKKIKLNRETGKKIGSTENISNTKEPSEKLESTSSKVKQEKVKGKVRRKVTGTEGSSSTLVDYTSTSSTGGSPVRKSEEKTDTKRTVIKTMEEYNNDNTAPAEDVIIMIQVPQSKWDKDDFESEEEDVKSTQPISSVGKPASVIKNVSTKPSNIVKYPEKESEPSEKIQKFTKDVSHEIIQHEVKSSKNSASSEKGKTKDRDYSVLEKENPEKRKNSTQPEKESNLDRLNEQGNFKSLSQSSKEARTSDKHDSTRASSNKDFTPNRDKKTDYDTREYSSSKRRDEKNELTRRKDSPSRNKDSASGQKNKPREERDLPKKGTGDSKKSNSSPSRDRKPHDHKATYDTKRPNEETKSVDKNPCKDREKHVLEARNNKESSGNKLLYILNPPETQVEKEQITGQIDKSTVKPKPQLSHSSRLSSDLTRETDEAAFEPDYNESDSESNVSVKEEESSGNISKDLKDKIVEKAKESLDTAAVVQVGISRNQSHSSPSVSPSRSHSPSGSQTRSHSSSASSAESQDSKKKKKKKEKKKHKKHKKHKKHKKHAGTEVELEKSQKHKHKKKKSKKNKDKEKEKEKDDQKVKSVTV

Molecular target: RB Binding Protein 6, Ubiquitin Ligase (RBBP6), HA-tagged (human) (UniProt Q7Z6E9)
Test: co-IP; HEK293T cells transfected with HA-RBBP6 for 48 h; NP-40 lysis buffer; one milligram of protein with anti-HA beads for 1 h at room temperature; beads washed five times with lysis buffer; immunoblotting

Row | binding | Binder
1 | binds | Cleavage and Polyadenylation Specific Factor 3 (CPSF3) (protein, UniProt Q9UKF6 1-684) MSAIPAEESDQLLIRPLGAGQEVGRSCIILEFKGRKIMLDCGIHPGLEGMDALPYIDLIDPAEIDLLLISHFHLDHCGALPWFLQKTSFKGRTFMTHATKAIYRWLLSDYVKVSNISADDMLYTETDLEESMDKIETINFHEVKEVAGIKFWCYHAGHVLGAAMFMIEIAGVKLLYTGDFSRQEDRHLMAAEIPNIKPDILIIESTYGTHIHEKREEREARFCNTVHDIVNRGGRGLIPVFALGRAQELLLILDEYWQNHPELHDIPIYYASSLAKKCMAVYQTYVNAMNDKIRKQININNPFVFKHISNLKSMDHFDDIGPSVVMASPGMMQSGLSRELFESWCTDKRNGVIIAGYCVEGTLAKHIMSEPEEITTMSGQKLPLKMSVDYISFSAHTDYQQTSEFIRALKPPHVILVHGEQNEMARLKAALIREYEDNDEVHIEVHNPRNTEAVTLNFRGEKLAKVMGFLADKKPEQGQRVSGILVKRNFNYHILSPCDLSNYTDLAMSTVKQTQAIPYTGPFNLLCYQLQKLTGDVEELEIQEKPALKVFKNITVIQEPGMVVLEWLANPSNDMYADTVTTVILEVQSNPKIRKGAVQKVSKKLEMHVYSKRLEIMLQDIFGEDCVSVKDDSILSVTVDGKTANLNLETRTVECEEGSEDDESLREMVELAAQRLYEALTPVH
2 | binds | CPSF2 (protein, UniProt Q9P2I0 1-782) MTSIIKLTTLSGVQEESALCYLLQVDEFRFLLDCGWDEHFSMDIIDSLRKHVHQIDAVLLSHPDPLHLGALPYAVGKLGLNCAIYATIPVYKMGQMFMYDLYQSRHNTEDFTLFTLDDVDAAFDKIQQLKFSQIVNLKGKGHGLSITPLPAGHMIGGTIWKIVKDGEEEIVYAVDFNHKREIHLNGCSLEMLSRPSLLITDSFNATYVQPRRKQRDEQLLTNVLETLRGDGNVLIAVDTAGRVLELAQLLDQIWRTKDAGLGVYSLALLNNVSYNVVEFSKSQVEWMSDKLMRCFEDKRNNPFQFRHLSLCHGLSDLARVPSPKVVLASQPDLECGFSRDLFIQWCQDPKNSIILTYRTTPGTLARFLIDNPSEKITEIELRKRVKLEGKELEEYLEKEKLKKEAAKKLEQSKEADIDSSDESDIEEDIDQPSAHKTKHDLMMKGEGSRKGSFFKQAKKSYPMFPAPEERIKWDEYGEIIKPEDFLVPELQATEEEKSKLESGLTNGDEPMDQDLSDVPTKCISTTESIEIKARVTYIDYEGRSDGDSIKKIINQMKPRQLIIVHGPPEASQDLAECCRAFGGKDIKVYMPKLHETVDATSETHIYQVRLKDSLVSSLQFCKAKDAELAWIDGVLDMRVSKVDTGVILEEGELKDDGEDSEMQVEAPSDSSVIAQQKAMKSLFGDDEKETGEESEIIPTLEPLPPHEVPGHQSVFMNEPRLSDFKQVLLREGIQAEFVGGVLVCNNQVAVRRTETGRIGLEGCLCQDFYRIRDLLYEQYAIV
3 | binds | CSTF2 (protein, UniProt P33240 1-577) MAGLTVRDPAVDRSLRSVFVGNIPYEATEEQLKDIFSEVGPVVSFRLVYDRETGKPKGYGFCEYQDQETALSAMRNLNGREFSGRALRVDNAASEKNKEELKSLGTGAPVIESPYGETISPEDAPESISKAVASLPPEQMFELMKQMKLCVQNSPQEARNMLLQNPQLAYALLQAQVVMRIVDPEIALKILHRQTNIPTLIAGNPQPVHGAGPGSGSNVSMNQQNPQAPQAQSLGGMHVNGAPPLMQASMQGGVPAPGQMPAAVTGPGPGSLAPGGGMQAQVGMPGSGPVSMERGQVPMQDPRAAMQRGSLPANVPTPRGLLGDAPNDPRGGTLLSVTGEVEPRGYLGPPHQGPPMHHVPGHESRGPPPHELRGGPLPEPRPLMAEPRGPMLDQRGPPLDGRGGRDPRGIDARGMEARAMEARGLDARGLEARAMEARAMEARAMEARAMEARAMEVRGMEARGMDTRGPVPGPRGPIPSGMQGPSPINMGAVVPQGSRQVPVMQGTGMQGASIQGGSQPGGFSPGQNQVTPQDHEKAALIMQVLQLTADQIAMLPPEQRQSILILKEQIQKSTGAP
